The supplement of paper PMC10849652
This is one part of the list.

The chains behind the UniProt entries cited, without tags or fusion partners. Where a name states a change or a piece, a line headed by the entry shows the natural chain unless it says otherwise.
UniProt O14936: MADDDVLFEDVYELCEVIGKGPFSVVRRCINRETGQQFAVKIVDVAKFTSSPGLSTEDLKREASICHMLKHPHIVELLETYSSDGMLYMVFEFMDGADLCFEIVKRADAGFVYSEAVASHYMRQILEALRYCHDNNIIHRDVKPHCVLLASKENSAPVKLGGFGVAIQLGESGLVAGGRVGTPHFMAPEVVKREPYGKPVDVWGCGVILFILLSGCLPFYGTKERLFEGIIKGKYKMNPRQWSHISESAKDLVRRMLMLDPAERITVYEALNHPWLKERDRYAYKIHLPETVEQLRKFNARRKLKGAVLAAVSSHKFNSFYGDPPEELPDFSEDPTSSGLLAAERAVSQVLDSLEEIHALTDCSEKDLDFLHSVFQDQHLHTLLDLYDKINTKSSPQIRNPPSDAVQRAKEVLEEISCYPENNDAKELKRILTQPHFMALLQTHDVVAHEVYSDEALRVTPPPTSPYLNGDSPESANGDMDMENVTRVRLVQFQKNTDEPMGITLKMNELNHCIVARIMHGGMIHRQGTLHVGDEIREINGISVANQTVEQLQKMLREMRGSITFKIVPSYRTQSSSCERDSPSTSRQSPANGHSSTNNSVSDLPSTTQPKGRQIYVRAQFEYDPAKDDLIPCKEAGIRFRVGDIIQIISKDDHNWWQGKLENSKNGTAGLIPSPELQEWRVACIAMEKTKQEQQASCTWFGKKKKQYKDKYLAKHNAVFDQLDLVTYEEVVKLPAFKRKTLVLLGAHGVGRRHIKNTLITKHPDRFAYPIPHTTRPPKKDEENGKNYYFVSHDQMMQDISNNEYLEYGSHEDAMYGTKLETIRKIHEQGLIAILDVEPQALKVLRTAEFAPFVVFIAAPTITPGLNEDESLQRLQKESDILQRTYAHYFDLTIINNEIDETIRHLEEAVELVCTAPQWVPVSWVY
UniProt P55210: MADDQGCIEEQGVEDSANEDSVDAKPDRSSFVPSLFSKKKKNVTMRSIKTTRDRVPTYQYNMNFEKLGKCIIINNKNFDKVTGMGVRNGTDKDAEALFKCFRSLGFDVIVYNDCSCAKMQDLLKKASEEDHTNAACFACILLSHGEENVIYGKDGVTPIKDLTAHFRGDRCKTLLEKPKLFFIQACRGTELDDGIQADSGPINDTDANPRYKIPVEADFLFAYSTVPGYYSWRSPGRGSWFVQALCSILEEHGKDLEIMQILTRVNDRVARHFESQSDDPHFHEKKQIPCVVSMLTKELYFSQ
UniProt P30281: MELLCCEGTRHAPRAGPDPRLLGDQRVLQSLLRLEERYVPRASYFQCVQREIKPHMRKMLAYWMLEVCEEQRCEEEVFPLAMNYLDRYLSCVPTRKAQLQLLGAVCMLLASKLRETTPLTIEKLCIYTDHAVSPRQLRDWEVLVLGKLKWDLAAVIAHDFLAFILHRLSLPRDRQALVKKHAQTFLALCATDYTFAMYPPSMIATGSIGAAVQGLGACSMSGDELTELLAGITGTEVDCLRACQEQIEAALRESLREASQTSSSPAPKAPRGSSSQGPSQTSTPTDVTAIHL
UniProt Q14781, whole entry, looked up: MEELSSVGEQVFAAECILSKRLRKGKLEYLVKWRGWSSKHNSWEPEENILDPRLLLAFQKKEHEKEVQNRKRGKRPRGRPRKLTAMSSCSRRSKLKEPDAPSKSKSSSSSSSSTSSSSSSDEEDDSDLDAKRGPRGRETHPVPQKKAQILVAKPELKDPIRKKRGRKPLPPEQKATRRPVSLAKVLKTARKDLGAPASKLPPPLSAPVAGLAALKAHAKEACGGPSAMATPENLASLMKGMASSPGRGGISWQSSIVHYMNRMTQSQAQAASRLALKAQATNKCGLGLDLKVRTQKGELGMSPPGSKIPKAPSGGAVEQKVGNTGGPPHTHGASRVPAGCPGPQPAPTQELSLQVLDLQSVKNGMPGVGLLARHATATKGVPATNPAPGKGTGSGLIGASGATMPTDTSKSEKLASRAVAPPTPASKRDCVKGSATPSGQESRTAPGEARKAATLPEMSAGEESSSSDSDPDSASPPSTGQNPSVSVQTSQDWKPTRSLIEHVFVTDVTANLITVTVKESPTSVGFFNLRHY
UniProt Q15762: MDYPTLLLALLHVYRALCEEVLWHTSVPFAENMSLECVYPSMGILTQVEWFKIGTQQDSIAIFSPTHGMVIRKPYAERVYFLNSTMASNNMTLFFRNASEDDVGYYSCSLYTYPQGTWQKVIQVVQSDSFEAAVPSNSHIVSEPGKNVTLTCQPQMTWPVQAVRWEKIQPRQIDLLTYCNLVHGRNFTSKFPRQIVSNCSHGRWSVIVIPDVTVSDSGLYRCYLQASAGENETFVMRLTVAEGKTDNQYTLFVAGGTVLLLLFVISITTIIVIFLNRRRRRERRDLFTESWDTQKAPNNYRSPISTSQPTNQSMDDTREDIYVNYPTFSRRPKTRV
UniProt Q6PK04: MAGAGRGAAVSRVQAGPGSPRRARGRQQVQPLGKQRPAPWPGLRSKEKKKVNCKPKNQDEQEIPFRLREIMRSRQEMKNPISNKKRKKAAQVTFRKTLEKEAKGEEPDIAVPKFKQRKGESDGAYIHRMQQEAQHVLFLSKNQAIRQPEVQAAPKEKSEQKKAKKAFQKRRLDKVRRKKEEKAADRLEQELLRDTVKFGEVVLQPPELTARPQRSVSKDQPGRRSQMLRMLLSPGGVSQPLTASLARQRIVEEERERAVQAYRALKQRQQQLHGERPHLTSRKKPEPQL
UniProt Q9UKL3: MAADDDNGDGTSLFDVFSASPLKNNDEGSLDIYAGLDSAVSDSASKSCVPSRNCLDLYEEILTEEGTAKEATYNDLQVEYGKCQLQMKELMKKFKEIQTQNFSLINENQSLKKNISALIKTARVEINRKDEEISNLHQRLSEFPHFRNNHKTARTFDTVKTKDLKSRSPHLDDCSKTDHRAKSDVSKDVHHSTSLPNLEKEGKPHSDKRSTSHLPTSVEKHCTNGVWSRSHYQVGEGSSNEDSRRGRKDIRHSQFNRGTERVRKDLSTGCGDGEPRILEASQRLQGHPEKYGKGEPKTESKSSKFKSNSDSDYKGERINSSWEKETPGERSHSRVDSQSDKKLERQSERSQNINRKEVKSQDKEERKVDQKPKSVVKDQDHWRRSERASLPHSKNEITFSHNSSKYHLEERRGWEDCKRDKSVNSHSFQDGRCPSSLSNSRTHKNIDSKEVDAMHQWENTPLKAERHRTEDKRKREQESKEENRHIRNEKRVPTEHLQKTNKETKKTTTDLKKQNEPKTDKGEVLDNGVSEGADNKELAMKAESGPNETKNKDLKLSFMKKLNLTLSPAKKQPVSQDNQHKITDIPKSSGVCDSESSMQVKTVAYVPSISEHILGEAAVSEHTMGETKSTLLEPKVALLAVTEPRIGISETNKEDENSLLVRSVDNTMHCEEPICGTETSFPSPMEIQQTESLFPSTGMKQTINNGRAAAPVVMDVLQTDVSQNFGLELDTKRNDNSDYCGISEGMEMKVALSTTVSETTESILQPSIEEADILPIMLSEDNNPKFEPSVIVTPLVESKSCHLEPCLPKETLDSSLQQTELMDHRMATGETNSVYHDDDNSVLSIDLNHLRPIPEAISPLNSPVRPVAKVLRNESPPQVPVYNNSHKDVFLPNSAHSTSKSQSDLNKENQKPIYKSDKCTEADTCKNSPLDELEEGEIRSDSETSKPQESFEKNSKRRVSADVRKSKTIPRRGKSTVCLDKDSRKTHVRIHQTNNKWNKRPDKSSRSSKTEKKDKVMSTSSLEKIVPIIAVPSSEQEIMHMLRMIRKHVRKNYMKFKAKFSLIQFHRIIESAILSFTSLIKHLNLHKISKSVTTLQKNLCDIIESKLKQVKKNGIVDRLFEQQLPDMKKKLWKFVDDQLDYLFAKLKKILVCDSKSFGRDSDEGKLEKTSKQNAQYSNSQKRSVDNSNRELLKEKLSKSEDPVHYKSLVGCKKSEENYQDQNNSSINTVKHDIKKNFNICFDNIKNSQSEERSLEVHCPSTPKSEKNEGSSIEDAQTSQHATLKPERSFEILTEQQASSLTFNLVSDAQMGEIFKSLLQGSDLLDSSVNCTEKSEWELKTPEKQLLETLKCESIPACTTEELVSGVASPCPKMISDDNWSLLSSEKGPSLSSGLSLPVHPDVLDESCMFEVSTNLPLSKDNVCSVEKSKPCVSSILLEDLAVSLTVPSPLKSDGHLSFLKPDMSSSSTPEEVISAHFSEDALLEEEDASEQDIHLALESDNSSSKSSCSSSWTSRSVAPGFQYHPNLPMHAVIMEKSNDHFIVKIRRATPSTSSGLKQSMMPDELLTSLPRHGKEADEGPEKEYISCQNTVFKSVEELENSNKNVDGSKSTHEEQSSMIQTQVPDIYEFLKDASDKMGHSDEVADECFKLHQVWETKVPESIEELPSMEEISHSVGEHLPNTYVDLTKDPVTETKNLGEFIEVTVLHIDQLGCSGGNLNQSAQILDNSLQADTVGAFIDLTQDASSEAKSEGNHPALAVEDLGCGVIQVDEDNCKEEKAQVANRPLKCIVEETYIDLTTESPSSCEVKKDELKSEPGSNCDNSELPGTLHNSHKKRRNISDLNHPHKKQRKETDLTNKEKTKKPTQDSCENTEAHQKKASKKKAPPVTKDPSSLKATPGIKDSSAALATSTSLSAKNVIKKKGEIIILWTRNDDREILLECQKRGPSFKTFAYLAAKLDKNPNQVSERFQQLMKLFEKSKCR
UniProt Q15834: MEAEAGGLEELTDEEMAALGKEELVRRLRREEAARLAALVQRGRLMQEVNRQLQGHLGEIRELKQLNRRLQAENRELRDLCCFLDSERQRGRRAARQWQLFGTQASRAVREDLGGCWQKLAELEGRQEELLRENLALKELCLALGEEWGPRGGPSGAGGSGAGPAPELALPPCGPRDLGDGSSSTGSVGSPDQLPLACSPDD
UniProt Q9HC52: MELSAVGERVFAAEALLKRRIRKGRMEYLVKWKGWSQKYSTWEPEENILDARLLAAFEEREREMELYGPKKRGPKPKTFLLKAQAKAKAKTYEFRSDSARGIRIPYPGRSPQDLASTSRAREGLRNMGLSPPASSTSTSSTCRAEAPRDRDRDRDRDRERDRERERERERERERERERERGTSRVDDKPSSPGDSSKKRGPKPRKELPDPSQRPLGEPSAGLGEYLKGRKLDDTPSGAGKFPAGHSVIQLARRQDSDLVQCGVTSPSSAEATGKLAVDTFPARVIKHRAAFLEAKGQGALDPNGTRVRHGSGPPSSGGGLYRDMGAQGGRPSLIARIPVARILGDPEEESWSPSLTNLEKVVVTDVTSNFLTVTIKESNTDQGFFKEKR
UniProt P24385, whole entry, looked up: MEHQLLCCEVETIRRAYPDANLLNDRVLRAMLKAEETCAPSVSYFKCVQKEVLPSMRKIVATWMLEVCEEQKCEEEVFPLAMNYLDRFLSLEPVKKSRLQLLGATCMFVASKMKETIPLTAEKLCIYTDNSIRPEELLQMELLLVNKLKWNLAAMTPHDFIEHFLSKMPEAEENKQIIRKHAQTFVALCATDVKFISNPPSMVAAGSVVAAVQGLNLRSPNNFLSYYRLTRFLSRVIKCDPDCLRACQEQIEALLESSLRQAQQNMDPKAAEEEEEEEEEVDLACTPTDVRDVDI
UniProt Q8N9Z2: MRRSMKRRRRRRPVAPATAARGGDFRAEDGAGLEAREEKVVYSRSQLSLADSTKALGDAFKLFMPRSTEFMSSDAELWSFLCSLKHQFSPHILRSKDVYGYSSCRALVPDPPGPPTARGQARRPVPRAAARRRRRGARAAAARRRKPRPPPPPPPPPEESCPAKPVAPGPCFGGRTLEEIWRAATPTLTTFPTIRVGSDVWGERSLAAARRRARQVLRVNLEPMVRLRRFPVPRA
UniProt P25942, whole entry, looked up: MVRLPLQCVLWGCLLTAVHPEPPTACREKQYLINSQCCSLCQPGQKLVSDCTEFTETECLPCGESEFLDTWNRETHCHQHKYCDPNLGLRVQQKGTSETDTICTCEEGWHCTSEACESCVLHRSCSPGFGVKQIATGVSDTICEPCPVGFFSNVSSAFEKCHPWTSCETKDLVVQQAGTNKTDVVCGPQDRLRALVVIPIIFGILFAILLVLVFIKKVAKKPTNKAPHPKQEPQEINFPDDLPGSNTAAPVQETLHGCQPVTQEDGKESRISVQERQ
UniProt P13994: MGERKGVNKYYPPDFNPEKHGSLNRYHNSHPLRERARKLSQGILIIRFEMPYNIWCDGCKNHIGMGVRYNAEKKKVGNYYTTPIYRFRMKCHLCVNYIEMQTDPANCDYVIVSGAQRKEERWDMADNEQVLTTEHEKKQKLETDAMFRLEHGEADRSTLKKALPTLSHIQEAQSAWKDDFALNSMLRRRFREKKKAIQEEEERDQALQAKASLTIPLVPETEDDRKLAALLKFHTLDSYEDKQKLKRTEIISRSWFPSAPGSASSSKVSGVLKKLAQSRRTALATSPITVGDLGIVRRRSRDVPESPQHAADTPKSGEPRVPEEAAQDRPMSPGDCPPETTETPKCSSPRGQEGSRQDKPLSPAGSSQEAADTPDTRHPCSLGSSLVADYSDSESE

Tests used:
Test in all cases: log2 fold change, soluble protein after heating vs DMSO (PISA); higher = thermal stabilisation; K562 lysate, 10 uM; active = over 0.2 and 3.5 SD of the protein, either way, in both replicates (recomputed)
[1] = compound: CS(=O)(=O)CCNCc1ccc(-c2ccc3ncnc(Nc4ccc(OCc5cccc(F)c5)c(Cl)c4)c3c2)o1 [lapatinib]
In short: (§1)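 Following dounce homogenisation of K562 pellets in PBS pH 7.4 with 1 mM MgCl2, crude extract at 1 mg/mL protein was incubated for 30 min with 10 μM compound. Aliquots were then heated for 3 min over 48°C-58°C and pooled, NP-40 was added to 0.5% at 4°C, and soluble protein was recovered as the supernatant at 21,000xg for 90 min. Channel-sum-equalised TMTpro 16plex LC-MS/MS quantified this protein. Each value, from duplicates, is a log-two fold change in thermal stability relative to solvent controls.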

[2] = compound: CS(=O)(=O)N1CCN(Cc2cc3nc(-c4cccc5[nH]ncc45)nc(N4CCOCC4)c3s2)CC1 [pictilisib]
In short: as §1

[3] = compound: C[C@H](C1=CC=C(C=C1)C(=O)NC2=C3C=CNC3=NC=C2)N
In short: as §1

[4] = compound: C[C@H](Nc1ncnc2nc[nH]c12)c1cc2cccc(Cl)c2c(=O)n1-c1ccccc1 [duvelisib]
In short: as §1

[5] = compound: Cc1cc(Nc2cc(CN3CCOCC3)c3nc(C)c(Cc4ccc(Cl)cc4F)n3n2)n[nH]1 [gandotinib]
In short: as §1

[6] = compound: Cc1cc(Nc2cc(N3CCN(C)CC3)nc(Sc3ccc(NC(=O)C4CC4)cc3)n2)n[nH]1 [tozasertib]
In short: as §1

[7] = compound: Cc1ccc(-n2nc(C(C)(C)C)cc2NC(=O)Nc2ccc(OCCN3CCOCC3)c3ccccc23)cc1 [doramapimod]
In short: as §1

[8] = compound: Cc1ccc(NC(=O)c2ccc(CN3CC[C@H](N(C)C)C3)c(C(F)(F)F)c2)cc1Nc1nccc(-c2cncnc2)n1 [bafetinib]
In short: as §1

[9] = compound: Cc1cccc(CC(=O)N2CCc3c2ccc(-c2cn(C)c4ncnc(N)c24)c3F)n1
In short: as §1

[10] = compound: Cc1nc(Nc2ncc(C(=O)Nc3c(C)cccc3Cl)s2)cc(N2CCN(CCO)CC2)n1 [dasatinib]
In short: as §1

[11] = compound: Cn1cc(-c2ccc3c(c2)CCN3C(=O)Cc2cccc(C(F)(F)F)c2)c2c(N)ncnc21
In short: as §1

[12] = compound: Cn1cc(CNCC2CCN(c3ncc(C(=O)NO)cn3)CC2)c2ccccc21 [quisinostat]
In short: as §1

[13] = compound: NC(=O)Nc1cc(-c2cccc(F)c2)sc1C(=O)N[C@H]1CCCNC1
In short: as §1

[14] = compound: NC(=O)c1cnc(N[C@@H]2CCCC[C@@H]2N)nc1Nc1cccc(-n2nccn2)c1
In short: as §1

[15] = compound: NC1(c2ccc(-c3nc4ccn5c(=O)[nH]nc5c4cc3-c3ccccc3)cc2)CCC1
In short: as §1

[16] = compound: C[C@@H](Oc1cc(-c2cnn(C3CCNCC3)c2)cnc1N)c1c(Cl)ccc(F)c1Cl [crizotinib]
In short: as §1

[17] = compound: Cc1cn(-c2cc(NC(=O)c3ccc(C)c(Nc4nccc(-c5cccnc5)n4)c3)cc(C(F)(F)F)c2)cn1 [nilotinib]
In short: as §1

[18] = compound: Cc1nc(Nc2n[nH]c3c2CN(C(=O)N[C@H](CN(C)C)c2ccccc2)C3(C)C)c2sccc2n1
In short: as §1

[19] = compound: Cc1ncc(-c2ccnc(Nc3ccc(S(C)(=O)=O)cc3)n2)n1C(C)C
In short: as §1

[20] = compound: Cn1cncc1[C@@](N)(c1ccc(Cl)cc1)c1ccc2c(c1)c(-c1cccc(Cl)c1)cc(=O)n2C [tipifarnib]
In short: as §1

Measured: log2 fold change

CASK (UniProt O14936)
inactive: [1] -0.033 | [2] -0.046 | [3] 0.052 | [4] 0.174 | [5] -0.021 | [6] 0.073 | [7] 0.061 | [8] -0.074 | [9] -0.141 | [10] -0.06 | [11] 0.012 | [12] 0.069 | [13] 0.139 | [14] -0.02 | [15] 0.001

CCNL1 (UniProt Q9UK58)
inactive: [1] -0.002 | [16] -0.062 | [3] -0.075 | [5] 0.065 | [6] 0.047 | [7] -0.024 | [9] 0.053 | [17] -0.069 | [18] 0.066 | [19] -0.023 | [12] 0.033 | [20] 0.031 | [13] 0.009 | [14] 0.033

CASP7 isoform 3 (UniProt P55210)
inactive: [1] -0.055 | [2] 0.037 | [16] -0.07 | [4] 0.009 | [6] 0.049 | [7] 0.029 | [8] -0.054 | [17] -0.042 | [18] 0.01 | [10] -0.091 | [19] 0.05 | [11] 0.226 | [12] -0.016 | [20] 0.049 | [13] 0.022 | [14] 0.106 | [15] 0.063

CBFA2T2 isoform 4 (UniProt O43439)
inactive: [1] 0.538 | [16] -0.041 | [3] -0.084 | [4] -0.386 | [5] 0.064 | [6] -0.169 | [7] 0.003 | [9] 0.222 | [17] -0.003 | [18] -0.003 | [10] 0.036 | [19] 0.004 | [11] -0.131 | [12] 0.053 | [20] -0.003 | [13] -0.046 | [14] 0.029 | [15] -0.075

CCND3 (UniProt P30281)
inactive: [2] -0.01 | [16] -0.083 | [3] -0.175 | [4] 0.015 | [5] -0.022 | [6] 0.073 | [7] 0.101 | [8] 0.003 | [9] 0.096 | [17] -0.061 | [18] -0.015 | [10] -0.08 | [19] 0.042 | [11] 0.137 | [12] -0.05 | [20] -0.062 | [13] -0.003 | [15] -0.057

CARHSP1 (UniProt H3BNU9)
inactive: [1] -0.101 | [2] -0.186 | [3] 0.16 | [5] -0.329 | [8] 0 | [9] 0.341 | [17] -0.196 | [18] 0.149 | [19] 0.238 | [20] 0.108 | [14] -0.059

CCAR2 (UniProt G3V119)
inactive: [1] -0.12 | [14] -0.015

CBX2 (UniProt Q14781)
inactive: [1] -0.155 | [17] 0.055 | [18] -0.151 | [19] -0.031 | [20] 0.08 | [14] -0.069

CD226 (UniProt Q15762)
inactive: [1] -0.134 | [2] 0.008 | [8] 0.017 | [14] 0.093

CCDC137 (UniProt Q6PK04)
inactive: [1] -0.029 | [2] 0.159 | [16] 0.057 | [3] -0.003 | [4] 0.012 | [5] 0.045 | [6] -0.028 | [7] -0.02 | [8] -0.015 | [9] 0.012 | [17] -0.1 | [18] -0.043 | [10] 0.12 | [19] 0.034 | [11] -0.05 | [12] 0.034 | [20] -0.04 | [13] 0.101 | [14] 0 | [15] -0.124

CASP8AP2 (UniProt Q9UKL3)
inactive: [2] -0.016 | [16] 0.03 | [3] -0.017 | [5] 0.013 | [6] -0.024 | [7] 0.049 | [8] 0 | [9] -0.018 | [12] -0.045 | [13] -0.029

CARS2 (UniProt Q9HA77)
inactive: [1] -0.09 | [2] -0.074 | [16] -0.023 | [3] 0.013 | [4] -0.033 | [5] -0.022 | [6] 0.053 | [7] 0.005 | [8] -0.047 | [9] -0.002 | [17] 0.022 | [18] 0.014 | [10] 0.012 | [19] 0.048 | [11] 0.046 | [12] 0.036 | [20] -0.008 | [13] -0.006 | [14] -0.068 | [15] 0.009

Quoted from above (two entries):
CCDC137 (UniProt Q6PK04)
inactive: [1] -0.029 | [2] 0.159 | [16] 0.057 | [3] -0.003 | [4] 0.012 | [5] 0.045 | [6] -0.028 | [7] -0.02 | [8] -0.015 | [9] 0.012 | [17] -0.1 | [18] -0.043 | [10] 0.12 | [19] 0.034 | [11] -0.05 | [12] 0.034 | [20] -0.04 | [13] 0.101 | [14] 0 | [15] -0.124

CASP8AP2 (UniProt Q9UKL3)
inactive: [2] -0.016 | [16] 0.03 | [3] -0.017 | [5] 0.013 | [6] -0.024 | [7] 0.049 | [8] 0 | [9] -0.018 | [12] -0.045 | [13] -0.029

Next part:

CCDC85B (UniProt Q15834)
inactive: [1] 0 | [2] -0.042 | [16] 0.006 | [3] -0.016 | [4] 0.081 | [5] -0.032 | [6] 0.248 | [7] 0.098 | [8] 0.054 | [9] 0.011 | [10] 0.066 | [11] -0.034 | [12] 0.086 | [13] 0.044 | [14] -0.225 | [15] 0.188

CBX8 (UniProt Q9HC52)
inactive: [16] -0.184 | [6] -0.122 | [7] 0.037 | [12] 0.037 | [13] -0.066

CCND1 (UniProt P24385)
inactive: [16] -0.22 | [3] -0.215 | [5] 0.119 | [7] 0.062 | [9] -0.025 | [12] -0.386 | [13] 0.126

CCDC66 (UniProt A2RUB6)
inactive: [6] -0.022

CCDC71L (UniProt Q8N9Z2)
inactive: [3] -0.149 | [4] -0.033 | [5] 0.042 | [9] 0.121 | [10] 0.002 | [11] 0.102

CD40 (UniProt P25942)
inactive: [3] 0.102 | [5] 0.253 | [9] 0.043

CCDC130 (UniProt P13994)
inactive: [2] -0.003 | [16] -0.689 | [6] 0.055 | [7] 0.617 | [8] -0.119 | [12] -0.583 | [13] -0.183 | [15] 0.259
